Assay: general procedure: solution-phase peptide synthesis; HATU/DIPEA
Details: conjugation step

Which conjugation yield does the source give for Ph-nBu-mAze-Val-Cit-PABC-MMA here?
Its conjugation yield is 17%.
